Laboratory results: PubChem BioAssay AID1259289 (Sanger Institute, 2017)
Here is a random part of 794 deposited reagents. 16 of all reagents (2%) count as active. 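Active marks cell loss from silencing alone; drug synergy shows only in the synergy scores, not the calls.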 Viability is capped at 1. No sequences are given here. Not given: the amount of reagent, the time to read-out.

Purpose: 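Kinase-wide silencing tested with three anchor drugs to reveal synergistic lethal pairs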 (primary screen)
Cell system: human LS513 colorectal cancer cells
Reagents: siRNA pool against human genes
Treatment: anchor drug BYL719 at 1 µM, cetuximab at 5 µg/ml or trametinib at 10 nM, or DMSO vehicle alone; exposure time not given
Detection: 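Survival versus non-targeting pool for each arm averaged over replicates, robust z-score in the arm with DMSO only, and synergy scores for BYL719, cetuximab or trametinib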
Reading the numbers: robust z-score, siRNA alone (DMSO): higher = more viable cells; strongly negative means essential; viability with DMSO vs control: higher = more viable cells; synergy score with BYL719: higher = stronger combined killing with BYL719; synergy score with cetuximab: higher = stronger combined killing with cetuximab; synergy score with trametinib: higher = stronger combined killing with trametinib
Call rule: 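a gene counts as active if its DMSO-only robust z-score falls under -3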
Calls: active = essential (knock-down alone); inactive = not essential

target,"robust z-score, siRNA alone (DMSO)",viability with DMSO vs control (fraction of control),synergy score with BYL719,synergy score with cetuximab,synergy score with trametinib,Outcome
SRPK2 (SRSF protein kinase 2),0.561,1,0.0493,0.0937,-0.0106,inactive
CEP290 (centrosomal protein 290),0.561,1,-0.134,-0.0968,0.0152,inactive
TBX3 (T-box transcription factor 3),0.561,1,-0.134,-0.0968,0.0223,inactive
RSKR (ribosomal protein S6 kinase related),0.561,1,-0.012,-0.0307,-0.121,inactive
MAP4K3 (mitogen-activated protein kinase kinase kinase kinase 3),0.561,1,-0.00938,-0.0968,0.0152,inactive
SHPK (sedoheptulokinase),0.561,1,-0.0228,-0.0274,0.0604,inactive
MAST2 (microtubule associated serine/threonine kinase 2),0.561,1,0.0158,-0.0228,0.0166,inactive
LTK (leukocyte receptor tyrosine kinase),0.561,1,-0.134,-0.0968,0.011,inactive
RIPK1 (receptor interacting serine/threonine kinase 1),-0.399,0.864,0.0802,0.0172,0.0228,inactive
MAPK4 (mitogen-activated protein kinase 4),0.139,0.94,0.0742,0.196,0.00279,inactive
AXIN2 (axin 2),0.561,1,-0.128,0.0118,0.0151,inactive
RYK (receptor like tyrosine kinase),0.561,1,0.0275,-0.0968,-0.0215,inactive
ERBB3 (erb-b2 receptor tyrosine kinase 3),0.561,1,-0.134,-0.0968,0.0287,inactive
PIK3R3 (phosphoinositide-3-kinase regulatory subunit 3),0.561,1,-0.0461,-0.0968,0.0241,inactive
RPS6KA2 (ribosomal protein S6 kinase A2),-2.8,0.523,-0.043,-0.0228,-0.0105,inactive
AKT2 (AKT serine/threonine kinase 2),0.243,0.955,0.111,0.143,0.022,inactive
MPP2 (MAGUK p55 scaffold protein 2),0.142,0.941,0.0827,0.0241,0.0391,inactive
PDK4 (pyruvate dehydrogenase kinase 4),0.561,1,0.113,-0.00904,0.0591,inactive
CERK (ceramide kinase),0.561,1,0.00228,0.159,-0.024,inactive
ROCK2 (Rho associated coiled-coil containing protein kinase 2),0.391,0.976,-0.0225,0.0631,-0.00211,inactive
GRK3 (G protein-coupled receptor kinase 3),0.561,1,-0.134,-0.0968,-0.0177,inactive
ALDH18A1 (aldehyde dehydrogenase 18 family member A1),0.561,1,-0.0352,-0.0138,0.0065,inactive
MAP3K14 (mitogen-activated protein kinase kinase kinase 14),0.561,1,0.138,0.0878,-0.132,inactive
MAP3K12 (mitogen-activated protein kinase kinase kinase 12),-0.045,0.914,-0.101,-0.00227,0.0462,inactive
NR2F2 (nuclear receptor subfamily 2 group F member 2),0.561,1,0.127,0.0131,0.0188,inactive
KDR (kinase insert domain receptor),0.561,1,-0.134,-0.0968,-0.0763,inactive
FN3K (fructosamine 3 kinase),0.561,1,-0.00606,-0.0869,0.0955,inactive
DNMT3A (DNA methyltransferase 3 alpha),0.503,0.992,0.0311,0.182,0.097,inactive
GRK2 (G protein-coupled receptor kinase 2),0.561,1,0.0998,0.0799,0.0476,inactive
STK17B (serine/threonine kinase 17b),-0.36,0.869,0.00726,-0.00269,0.0664,inactive
PIP4K2A (phosphatidylinositol-5-phosphate 4-kinase type 2 alpha),0.561,1,-0.134,-0.0968,-0.0724,inactive
PI4K2A (phosphatidylinositol 4-kinase type 2 alpha),0.561,1,-0.134,-0.0968,-0.025,inactive
COASY (Coenzyme A synthase),0.091,0.933,0.188,0.232,0.0593,inactive
MAP2K2 (mitogen-activated protein kinase kinase 2),0.561,1,-0.0221,0.0491,0.0169,inactive
STK4 (serine/threonine kinase 4),0.561,1,-0.0754,-0.078,0.0159,inactive
DGKB (diacylglycerol kinase beta),-2.21,0.607,-0.0792,-0.109,0.0178,inactive
TSSK3 (testis specific serine kinase 3),0.561,1,0.00545,0.0326,-0.0605,inactive
TBK1 (TANK binding kinase 1),0.188,0.947,0.0634,0.163,0.0616,inactive
IKBKG,-0.716,0.819,-0.138,0.0903,-0.00694,inactive
DCLK2 (doublecortin like kinase 2),-2.09,0.624,-0.0836,-0.00802,-0.0307,inactive
STK26 (serine/threonine kinase 26),0.561,1,0.042,0.0208,-0.0233,inactive
CALM1 (calmodulin 1),-1.14,0.759,-0.106,-0.202,0.014,inactive
SMG1,-2.2,0.608,-0.142,-0.259,-0.0187,inactive
CAD,0.561,1,-0.129,-0.0968,-0.0204,inactive
MAPK8 (mitogen-activated protein kinase 8),0.561,1,-0.134,-0.0968,-0.0865,inactive
WHR1 (winged helix repair factor 1),0.561,1,0.0198,-0.0968,0.0314,inactive
STK38L (serine/threonine kinase 38 like),0.132,0.939,-0.0134,-0.0577,0.0761,inactive
TGFBR2 (transforming growth factor beta receptor 2),-0.102,0.906,0.0105,0.0227,0.0431,inactive
SOS2 (SOS Ras/Rho guanine nucleotide exchange factor 2),0.561,1,0.0542,0.176,-0.119,inactive
ROCK1 (Rho associated coiled-coil containing protein kinase 1),0.561,1,-0.134,-0.0968,-0.0295,inactive
